# These are yes or no findings as the source states them, for the method shown.
# Target: Shank1 PDZ domain (rat, G654-K768) (rat) (UniProt Q9WV48)
# Experiment: NMR 15N R1 and R2 relaxation (rotational correlation time); 200 µM protein, 50 mM NaPi, 20 mM NaCl, 0.02% NaN3, pH 7.4, 8% D2O, 298 K, 700 MHz; τc from Tensor2 compared with HydroPro and with estimates from sequence length for monomer and dimer; both purified
binder,measurement,value
"Shank1 PDZ domain (rat, G654-K768) (domain or fragment, UniProt Q9WV48 654-768) GSHMGSDYIIKEKTVLLQKKDSEGFGFVLRGAKAQTPIEEFTPTPAFPALQYLESVDEGGVAWRAGLRMGDFLIEVNGQNVVKVGHRQVVNMIRQGGNTLMVKVVMVTRHPDMDEAVHK",binding,no binding (tested: 200 µM)

# Source: PMC9068651
